# Results from article PMC5741625, “Methylation-regulated decommissioning of multimeric PP2A complexes” (Nature Communications, 2017).
# Chains of the proteins cited; added tags and fusions are not shown. Lines headed by an entry give the natural chain unless they say otherwise; changes in a name come on top.
# UniProt P67775: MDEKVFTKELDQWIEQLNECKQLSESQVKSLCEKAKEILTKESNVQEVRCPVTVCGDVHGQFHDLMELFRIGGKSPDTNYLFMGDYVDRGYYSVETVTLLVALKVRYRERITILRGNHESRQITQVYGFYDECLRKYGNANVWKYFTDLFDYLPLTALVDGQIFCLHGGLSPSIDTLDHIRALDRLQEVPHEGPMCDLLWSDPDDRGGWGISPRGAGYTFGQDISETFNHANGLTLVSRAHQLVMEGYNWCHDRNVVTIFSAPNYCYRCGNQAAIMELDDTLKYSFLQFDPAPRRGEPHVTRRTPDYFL
# These are yes or no findings as the source states them, for the method shown. In cells and extracts the contact can be indirect. Some results given as binding are weak or reduced against the parent protein; the word gives no strength. Sequences can lack the tags named with a protein.
# Target: T1, Flag-tagged human TIPRL, wild type (human) (UniProt O75663)
# T1 sequence: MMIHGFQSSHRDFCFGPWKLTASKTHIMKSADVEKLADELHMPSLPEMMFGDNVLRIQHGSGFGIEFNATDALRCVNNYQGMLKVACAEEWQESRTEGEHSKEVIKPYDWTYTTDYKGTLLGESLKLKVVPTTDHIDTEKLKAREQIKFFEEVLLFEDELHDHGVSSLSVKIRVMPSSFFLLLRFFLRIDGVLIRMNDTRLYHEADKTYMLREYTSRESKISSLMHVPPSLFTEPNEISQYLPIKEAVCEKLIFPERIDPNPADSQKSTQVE
# Assay: co-IP; 293T cells co-transfected with Flag-TIPRL and V5-PP2Ac; anti-FLAG affinity gel; western blot
row,binding,Substance
1,no binding,V5-tagged human PP2Ac with deletion of residue L309 (from UniProt P67775 1-309) (enzyme)
2,no binding,V5-tagged human PP2Ac Y307E (from UniProt P67775 1-309) (enzyme)
3,binds,"V5-tagged human PP2Ac α isoform, wild type (from UniProt P67775 1-309) (enzyme)"
